Reference: paper PMC8617193
Results are given in words; binding and its absence hold for the method and conditions named. Some binding calls cover weakened binding; strength is not graded here. Each block holds one substance with its values, some of them ahead of it.

Sequences of proteins named here, by UniProt entry; tags and fusion partners are left off. A change or cut given only in a name is not applied to a line headed by its entry. A line that says so, or that is headed by a name, gives the form on record, which may keep a tag or linker.
UniProt Q9HD34: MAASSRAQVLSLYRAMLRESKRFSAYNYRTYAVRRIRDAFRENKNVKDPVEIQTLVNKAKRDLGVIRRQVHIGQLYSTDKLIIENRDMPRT
ISCU2-Y35D (Q9H1K1-1, form named): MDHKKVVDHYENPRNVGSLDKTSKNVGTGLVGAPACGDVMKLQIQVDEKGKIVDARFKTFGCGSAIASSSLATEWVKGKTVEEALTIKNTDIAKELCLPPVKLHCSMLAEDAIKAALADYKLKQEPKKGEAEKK
ISCU2-Y35K (Q9H1K1-1, form named): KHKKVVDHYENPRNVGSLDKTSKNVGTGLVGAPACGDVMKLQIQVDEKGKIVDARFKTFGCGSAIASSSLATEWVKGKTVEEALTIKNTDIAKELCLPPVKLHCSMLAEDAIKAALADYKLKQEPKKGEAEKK
UniProt P0A6A8: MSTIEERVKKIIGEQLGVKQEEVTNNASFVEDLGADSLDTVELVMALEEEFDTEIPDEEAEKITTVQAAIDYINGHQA

Assays:
[1] = biological target: ISD11 as crystallised in the (NIAU2)2 complexes (human) (UniProt Q9HD34); assay: crystal structure; (NIAU2)2 complexes with wild-type or mutant ISCU2, 16-18 mg/ml, sitting drop, 0.1 M MES pH 6.5, 22.5% PEG-400, 15 °C; space group P41212; 1.57-1.95 Å; both purified
ISCU2-Y35D (human) [2] = biological target: ISCU2-Y35D (human) (UniProt Q9H1K1); assay: cross-linking; 25 µM chemically reconstituted ISCU2 proteins in buffer S, UV irradiation 5 min on ice (di-tyrosine formation); fluorescence (Ex 320 nm, Em 380-480 nm) and reducing SDS-PAGE with anti-HIS immunoblot; both purified
ISCU2-Y35D (human) [3] = biological target: ISCU2-Y35D (human) (UniProt Q9H1K1); assay: SEC; anaerobic analytical SEC (Superdex 75 10/300, buffer S) of enzymatic reconstitution mixtures; ISCU2 proteins in 20-fold excess over the other core ISC proteins; detection at 280, 320 and 420 nm; both purified
ISCU2-Y35K (human) = ISCU2-Y35K (human) (UniProt Q9H1K1); assay: as above

binding [1]: binds
Substance: ACP as crystallised in the (NIAU2)2 complexes (from UniProt P0A6A8 1-78)

binding (ISCU2-Y35D (human) [2]): no binding (tested: 25 µM)
Substance: ISCU2-Y35D (from UniProt Q9H1K1-1 35-167)
binding (ISCU2-Y35D (human) [3]): no binding (tested: 75–100 µM ISCU2 in the reconstitution)

Substance: ISCU2-Y35K (from UniProt Q9H1K1-1 35-167)
binding (ISCU2-Y35K (human)): no binding (tested: 75–100 µM ISCU2 in the reconstitution)
